Here are results for five molecules from PMC13582825.

Chains of the proteins cited; added tags and fusions are not shown.
UniProt P67775: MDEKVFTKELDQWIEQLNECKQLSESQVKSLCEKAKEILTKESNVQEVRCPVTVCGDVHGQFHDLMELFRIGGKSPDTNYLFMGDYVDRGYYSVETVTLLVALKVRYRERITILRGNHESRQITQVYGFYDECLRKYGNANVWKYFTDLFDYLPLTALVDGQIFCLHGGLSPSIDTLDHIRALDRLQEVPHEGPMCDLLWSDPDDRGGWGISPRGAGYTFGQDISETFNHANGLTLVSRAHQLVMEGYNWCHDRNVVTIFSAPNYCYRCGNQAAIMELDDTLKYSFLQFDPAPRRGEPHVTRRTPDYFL
UniProt A7MCY6: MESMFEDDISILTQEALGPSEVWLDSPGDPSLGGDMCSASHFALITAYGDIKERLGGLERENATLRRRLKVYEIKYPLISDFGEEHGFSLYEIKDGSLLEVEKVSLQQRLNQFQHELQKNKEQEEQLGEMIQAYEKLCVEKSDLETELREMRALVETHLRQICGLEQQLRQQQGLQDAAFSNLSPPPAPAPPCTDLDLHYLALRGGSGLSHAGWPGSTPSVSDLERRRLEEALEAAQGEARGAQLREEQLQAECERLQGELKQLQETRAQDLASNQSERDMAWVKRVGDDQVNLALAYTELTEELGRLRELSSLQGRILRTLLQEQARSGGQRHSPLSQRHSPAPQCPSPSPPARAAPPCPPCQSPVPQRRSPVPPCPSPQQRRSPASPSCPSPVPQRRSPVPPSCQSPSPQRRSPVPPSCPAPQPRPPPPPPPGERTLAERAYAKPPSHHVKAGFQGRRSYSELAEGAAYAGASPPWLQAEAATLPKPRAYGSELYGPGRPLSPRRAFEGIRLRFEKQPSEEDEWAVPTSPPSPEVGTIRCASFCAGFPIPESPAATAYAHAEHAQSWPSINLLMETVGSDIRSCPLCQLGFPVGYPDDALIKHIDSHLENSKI

No constants are given. Whether binding was seen depends on the method and setting. In cells and extracts the contact can be indirect. Some binding calls cover weakened binding; strength is not graded here. Sequences can lack the tags named with a protein.

For one assay, the target named is T1, HA-TANK (human) (UniProt Q92844).
T1 sequence: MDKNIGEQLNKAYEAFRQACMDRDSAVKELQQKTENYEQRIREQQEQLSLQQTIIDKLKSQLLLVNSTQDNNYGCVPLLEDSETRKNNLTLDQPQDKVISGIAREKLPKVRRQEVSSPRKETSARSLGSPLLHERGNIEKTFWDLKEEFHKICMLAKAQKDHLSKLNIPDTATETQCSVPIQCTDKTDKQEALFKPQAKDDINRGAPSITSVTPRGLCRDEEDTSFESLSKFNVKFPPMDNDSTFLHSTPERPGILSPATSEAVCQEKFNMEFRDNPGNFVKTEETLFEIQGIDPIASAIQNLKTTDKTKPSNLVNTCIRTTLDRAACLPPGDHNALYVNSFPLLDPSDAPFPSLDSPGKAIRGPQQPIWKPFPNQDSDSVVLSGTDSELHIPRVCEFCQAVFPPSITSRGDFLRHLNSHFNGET
Kind of assay: co-IP; HEK293T co-transfected 24 h with FLAG-SINTBAD and HA-TANK; TANK immunoprecipitated with anti-HA, protein G magnetic beads, washes in RIPA buffer; WB anti-TANK and anti-SINTBAD.

The next assay has as its target T2, GFP-TBK1 (human) (UniProt Q9UHD2).
T2 sequence: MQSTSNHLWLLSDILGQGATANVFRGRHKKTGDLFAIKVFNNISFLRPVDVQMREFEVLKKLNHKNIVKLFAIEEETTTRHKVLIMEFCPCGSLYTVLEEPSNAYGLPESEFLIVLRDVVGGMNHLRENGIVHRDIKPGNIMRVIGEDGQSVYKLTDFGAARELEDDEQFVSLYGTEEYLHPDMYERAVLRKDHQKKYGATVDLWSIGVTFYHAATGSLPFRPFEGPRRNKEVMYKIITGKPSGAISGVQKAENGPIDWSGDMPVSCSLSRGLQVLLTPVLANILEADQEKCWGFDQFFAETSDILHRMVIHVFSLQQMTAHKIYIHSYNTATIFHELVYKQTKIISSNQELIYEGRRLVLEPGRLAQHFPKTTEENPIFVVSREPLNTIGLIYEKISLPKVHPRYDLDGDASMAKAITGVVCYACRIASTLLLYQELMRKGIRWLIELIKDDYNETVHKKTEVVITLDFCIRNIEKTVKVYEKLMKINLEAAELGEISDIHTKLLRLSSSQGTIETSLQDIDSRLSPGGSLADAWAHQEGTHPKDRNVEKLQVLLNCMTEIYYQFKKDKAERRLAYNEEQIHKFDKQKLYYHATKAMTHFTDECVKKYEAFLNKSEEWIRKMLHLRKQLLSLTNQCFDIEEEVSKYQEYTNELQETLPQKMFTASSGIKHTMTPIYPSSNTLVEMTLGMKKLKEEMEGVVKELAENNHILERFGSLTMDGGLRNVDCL
As to the kind of experiment: co-IP; TBK1 with HD or TBD-CTD truncations of the adaptor proteins (Supplementary Fig. 5D); HEK293T, lysis and washes in RIPA buffer, protein G magnetic beads.

For a further assay, the target named is GFP-PP2A-Cα (human) (UniProt P67775). As to the kind of experiment: co-IP; GFP-PP2A-Cα immunoprecipitated; NAP1 and TBK1 looked for (Supplementary Fig. 8G).
The target of a further assay is T3, GFP-TBK1 1-668 (human) (UniProt Q9UHD2).
T3 sequence: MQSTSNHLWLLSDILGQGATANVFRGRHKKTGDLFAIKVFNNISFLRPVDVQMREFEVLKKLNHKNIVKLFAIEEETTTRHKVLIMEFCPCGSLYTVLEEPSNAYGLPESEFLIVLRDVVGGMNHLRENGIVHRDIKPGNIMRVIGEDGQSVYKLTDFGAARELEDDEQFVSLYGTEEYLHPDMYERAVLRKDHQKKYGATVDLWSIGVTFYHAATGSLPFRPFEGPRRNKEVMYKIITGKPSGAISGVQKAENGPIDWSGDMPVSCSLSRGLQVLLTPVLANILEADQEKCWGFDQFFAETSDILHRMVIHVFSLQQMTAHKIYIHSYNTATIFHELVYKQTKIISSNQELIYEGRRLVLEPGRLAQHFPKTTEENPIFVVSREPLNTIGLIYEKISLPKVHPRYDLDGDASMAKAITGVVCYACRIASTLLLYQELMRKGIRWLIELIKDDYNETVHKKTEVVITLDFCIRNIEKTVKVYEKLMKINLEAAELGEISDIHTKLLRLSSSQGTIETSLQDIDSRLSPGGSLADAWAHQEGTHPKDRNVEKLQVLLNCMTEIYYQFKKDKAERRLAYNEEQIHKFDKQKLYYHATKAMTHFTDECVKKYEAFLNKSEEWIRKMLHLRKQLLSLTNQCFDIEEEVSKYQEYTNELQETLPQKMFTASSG
Kind of assay: co-IP; HEK293T; GFP-TBK1 1-668 with the adaptor proteins (Supplementary Fig. 5B); lysis and washes in RIPA buffer, protein G magnetic beads.

On to “FLAG-SINTBAD (from UniProt A7MCY6 1-615)”, for which, in the assay with HA-TANK (human), the binding result is “no binding”.

B1: mC-TANK 1-129 (domain or fragment, UniProt Q92844 1-129)
chain: MDKNIGEQLNKAYEAFRQACMDRDSAVKELQQKTENYEQRIREQQEQLSLQQTIIDKLKSQLLLVNSTQDNNYGCVPLLEDSETRKNNLTLDQPQDKVISGIAREKLPKVRRQEVSSPRKETSARSLGS
For B1, the binding entry with GFP-TBK1 (human) is on record as “no binding”.

B2: TBK1 (as tested with immunoprecipitated GFP-PP2A-Cα) (enzyme, UniProt Q9UHD2 1-729)
chain: T2 sequence
Take B2: the binding entry with GFP-PP2A-Cα (human) is recorded as “no binding”.

B3: mC-TANK (protein, UniProt Q92844 1-425)
chain: T1 sequence
In the case of B3, the binding entry with GFP-TBK1 1-668 (human) was “no binding”.

B4: mC-TANK 129-425 (domain or fragment, UniProt Q92844 129-425)
chain: SPLLHERGNIEKTFWDLKEEFHKICMLAKAQKDHLSKLNIPDTATETQCSVPIQCTDKTDKQEALFKPQAKDDINRGAPSITSVTPRGLCRDEEDTSFESLSKFNVKFPPMDNDSTFLHSTPERPGILSPATSEAVCQEKFNMEFRDNPGNFVKTEETLFEIQGIDPIASAIQNLKTTDKTKPSNLVNTCIRTTLDRAACLPPGDHNALYVNSFPLLDPSDAPFPSLDSPGKAIRGPQQPIWKPFPNQDSDSVVLSGTDSELHIPRVCEFCQAVFPPSITSRGDFLRHLNSHFNGET
As for B4, the binding result with GFP-TBK1 (human) is given as “binds”.
